Data on 40 molecules can be found in the supplement of paper PMC7824004.

The other results are listed elsewhere or left out. The data scatter; read single values as rough.

The test relates to Candida albicans SN425. Nature of the test: biofilm OD600 B-score; higher = more biofilm (less inhibition). As to conditions: 10 µM; assay detail: High-throughput adherence inhibition optical density biofilm assay with C. albicans SN425 in RPMI-1640/MOPS pH 7.0, 384-well plates. …. The procedure: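 High-throughput adherence inhibition optical density biofilm assay with C. albicans SN425 in RPMI-1640/MOPS pH 7.0, 384-well plates. Compound (10 µM) was present only during the 90 min adherence step, then washed out, and the biofilm grew 24 h without compound. Biofilm was read as OD600 after removing the media. Scores are the difference from the mean in standard deviations and the plate B-score.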
As to `Cc1ccc(OCC(=O)Nc2ccccc2N2CCOCC2)cc1`, the “biofilm OD600 B-score” value came out at 0.536.
To `CCOc1ccc(C(=O)NCCCn2ccnc2)cc1` belongs 1.79; to `CCOc1ccc(OCCCn2cnc3ccccc3c2=O)cc1`, 2.37.
On to `CC(C)(C)NS(=O)(=O)Nc1ccccc1`, for which the “biofilm OD600 B-score” value came to 2.77.
Take `CCCN1CCC(N2CCN(c3ccccc3OC)CC2)CC1`: the “biofilm OD600 B-score” value was -1.74.
To `COc1ccc(OCC(=O)Nc2cccc(C(=O)O)c2C)cc1` belongs 2.31.
To `COCC(=O)Nc1cc(OC)cc(OC)c1` belongs 0.376; to `COc1ccc(C(N)=O)cc1NC(C)=O`, -1.53.
The figure for `CC(=O)Nc1cccc(NC(=O)CSc2ccccc2)c1` is -0.403.
On to `CN1CCCN(Cc2cccc(Cl)c2)CC1`, for which the “biofilm OD600 B-score” value is -0.778.
As for `O=C(Nc1nnc(C2CC2)s1)c1csc2ccccc12`, the “biofilm OD600 B-score” value was 1.1.
In the case of `CCCSc1nc(C)cc(COC)c1C#N`, the “biofilm OD600 B-score” value turned out to be 0.917.
`C/C(=C\c1ccccc1)CN1CCC(C(=O)N2CCCCC2)CC1`: the “biofilm OD600 B-score” value is 2.62.
Consider `CN1CCN(C(=O)C2CC=CCC2C(=O)O)CC1` (stereo not given), for which the “biofilm OD600 B-score” value was -0.258.
With `Cc1nc2ccccc2c(C(=O)O)c1-c1ccccc1`, the “biofilm OD600 B-score” value was 0.213.
To `CC1CCC(NCC(C)(C)CN(C)C)C1` (stereo not given) belongs -0.0153.
The figure for `CCCN1CCC(NCCc2ccccc2OC)CC1` is 1; for `Cc1ccc2nc(SCC(=O)NC(C)(C)C)[nH]c2c1` it is -1.55; for `COc1ccc(S(=O)(=O)Nc2cccc(C)c2)cc1OC` it is -2.12.
To `C1=CC2CC1CC2CN1CCOCC1` (stereo not given) belongs -0.0277; to `NC(=O)C1CCN(C(=O)CSc2ccc(Cl)cc2)CC1`, 5.03.
Regarding `CCC(Oc1ccccc1)C(=O)Nc1ccccc1OC` (stereo not given), the “biofilm OD600 B-score” value came out at 1.76.
In the case of `Cc1nc(SCC(N)=O)c(C#N)c(C)c1C`, the “biofilm OD600 B-score” value was -3.5.
To `O=C(CN1CCOCC1)NCC1COc2ccccc2O1` (stereo not given) belongs -1.02; to `Cc1occc1C(=O)NCCCn1ccnc1`, -2.23.
For the molecule `CCc1cccc(OCCCN2CCN(C)CC2)c1`, the “biofilm OD600 B-score” value came out at 0.0663.
To `NNc1nc(Nc2ccccc2)nc(N2CCOCC2)n1` belongs -0.8.
To `CCOc1ccc(C(C)(CC(=O)O)C(=O)O)cc1` (stereo not given) belongs 0.155; to `CCOc1ccc(NC(=O)CSc2ncn[nH]2)cc1`, 0.0974.
The figure for `Cc1ccc(S(=O)(=O)NCc2cccnc2)cc1` is 1.35.
As for `Fc1ccccc1OCCCCn1ccnc1`, the “biofilm OD600 B-score” value worked out at 1.
With `Cc1ccc(C(=O)N(CC(N)=O)CC(N)=O)cc1`, the “biofilm OD600 B-score” value was 2.75.
To `COc1cc(NC(C)=O)c(OC)cc1NC(C)=O` belongs 1.69; to `CC(C)(C)c1nnc(NC(=O)CSc2ncn[nH]2)s1`, -1.24.
As for `O=C(Nc1ccccc1C(=O)N1CCOCC1)c1ccccc1Cl`, the “biofilm OD600 B-score” value was -0.183.
Turning to `Cc1cc(C)c(OCC(O)CNC(C)(C)C)c(C)c1` (stereo not given), the “biofilm OD600 B-score” value was -0.84.
The figure for `CCC(NC(=O)C1C2CCC(C2)C1C(=O)O)c1ccccc1` (stereo not given) is -1.52; for `C=CCNCCOc1cccc(Br)c1` it is 3.05.
As to `Cc1ccc(C)c(NC(=O)c2ccoc2C)c1`, the “biofilm OD600 B-score” value stood at 1.38.
The figure for `COCC(C)NC(=O)N1CCOCC1` (stereo not given) is 0.486.
